According to US4405608A, “Novel peptide” (Novo Industri A/S, priority 1981, dated 1983):
Several values for one entry are separate records, joined by “and”; a condition that tells them apart may be missing. Identical values can stand only once. Part of at least one peptide drawing is inferred or uncertain, most often the ends. No end group written: not given here.

Experiments:
[1] = test system: pentagastrin stimulated gastric acid secretion; test: Pentagastrin stimulated gastric acid secretion in cats with chronic gastric fistulas; type: in vivo
[2] = test system: pentagastrin stimulated gastric acid secretion; test: Pentagastrin stimulated gastric acid secretion in rats with chronic gastric fistulas; type: in vivo, male Wistar rats; details: for average increase in acid secretion over basal acid secretion: N=three rats, placebo 12.5
[3] = Isoelectric point (isoelectric focusing); type: physicochemical

With RSLQNTEEKSRSFPAPQTDPLDDPDQMTED [GRPP] the “effect on pentagastrin stimulated gastric acid secretion in cats in vivo” value ([1]; cats, in vivo) was “inhibits”, the “increase in acid secretion over basal acid secretion, over 90 minutes” value ([1]; two cats, 1 μg/kg pentagastrin s.c. plus 2 μg/kg test substance s.c., placebo 854±83, x±S.E.M.) was 555±28 μEq acid and the “mean increase in gastric acid secretion, over 90 minutes” value ([1]; two other cats, 5 μg/kg pentagastrin plus 16 μg/kg GRPP, N=2 experiments, placebo 1229±145) was 616 .parallel.Eq acid. The “average increase in acid secretion over basal acid secretion” value ([2]; 10 μg pentagastrin s.c. plus 5 μg GRPP i.v. over 1 hour) was 6.0 μEq acid, the “average increase in acid secretion over basal acid secretion” value ([2]; 10 μg pentagastrin s.c. plus 10 μg GRPP i.v. over 1 hour) was 0.5 μEq acid and the “effect on pentagastrin stimulated gastric acid secretion in rats in vivo” value ([2]; rats, in vivo) was “inhibits”. For the same sequence, the isoelectric point [3] was 4.0 and 4.0-4.1 and 4.0±0.2.
